PubChem BioAssay AID720504 (National Center for Advancing Translational Sciences (NCATS), 2013)
Among all 360,000 compounds or so, about 10,000 (2.8%) were called active. The shares of active, inactive and inconclusive entries below differ from those in the screen. Calls come from the whole dose curve; as a rule, active = well fitted inhibition curve with a large enough effect; inconclusive = small, poorly fitted or top-dose-only effect; inactive = flat fitted curve, though single readings scatter. A potency beside an inconclusive call is a rough fit, not a confirmed value.

Chains of the proteins cited; added tags and fusions are not shown.
UniProt P53350, whole entry, looked up: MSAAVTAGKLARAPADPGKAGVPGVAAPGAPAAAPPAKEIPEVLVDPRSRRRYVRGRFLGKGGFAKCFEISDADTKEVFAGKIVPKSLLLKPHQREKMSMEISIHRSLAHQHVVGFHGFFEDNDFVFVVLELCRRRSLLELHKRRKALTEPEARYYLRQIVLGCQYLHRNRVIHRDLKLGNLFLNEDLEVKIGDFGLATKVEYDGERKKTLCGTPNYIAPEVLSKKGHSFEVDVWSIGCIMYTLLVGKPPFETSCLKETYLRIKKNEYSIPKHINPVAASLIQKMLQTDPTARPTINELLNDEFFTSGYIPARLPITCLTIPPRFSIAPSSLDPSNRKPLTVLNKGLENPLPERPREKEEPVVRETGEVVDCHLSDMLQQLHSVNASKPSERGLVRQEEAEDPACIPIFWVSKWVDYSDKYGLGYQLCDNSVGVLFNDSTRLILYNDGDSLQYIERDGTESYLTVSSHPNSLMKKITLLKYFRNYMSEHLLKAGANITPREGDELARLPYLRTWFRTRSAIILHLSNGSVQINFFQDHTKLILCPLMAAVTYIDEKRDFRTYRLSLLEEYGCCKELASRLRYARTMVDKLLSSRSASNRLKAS

Molecular target: Serine/threonine-protein kinase PLK1 (Homo sapiens) (UniProt P53350)
Assay: qHTS for Inhibitors of PLK1-PDB (polo-like kinase 1 - polo-box domain): Primary Screen; note: nearly all actives have a fitted effect of over 65% in size; for max response, negative = inhibition: series mostly up to about 57 µM
Details: Plk1 PBD binding of FITC phosphopeptide, fluorescence polarization
% is set by controls: 0 for no effect and ±100 for the full control effect; potency is the fitted concentration of half-maximal effect.

SMILES	max response, negative = inhibition	Potency
O=C(Nc1ccc2c(c1)OCO2)C1CC(c2cccc(Br)c2)=NO1 (configuration not stated)	inactive: -5.52%	
CCC(=O)/C=C1/Sc2ccccc2N1CC		active: 26.7 µM
CCOC(=O)Cc1csc(NS(=O)(=O)c2ccc(SC)cc2)n1		inconclusive: 23.8 µM [inhibitor, single point]
COC(=O)c1c(C)oc2c1cc(NS(=O)(=O)c1cccs1)c1ccccc12	inactive: -20%	
CCOc1ccc(NC(=O)COc2ccc(OC)cc2)cc1		inconclusive: 6.7 µM [inhibitor, single point]
Cc1sc(NC(=O)C2CCCCC2C(=O)O)c(C(N)=O)c1-c1ccc(C(C)(C)C)cc1 (configuration not stated)		active: 21.2 µM
COc1cc(/C=C/[N+](=O)[O-])ccc1OC(=O)/C=C/c1ccc(F)cc1	inconclusive: -20.4% [inhibitor]	
CC(=O)Nc1ccc(O)cc1[N+](=O)[O-]		inconclusive: 7.52 µM [inhibitor, partial curve]
CCCCn1c(SCC(=O)Nc2sc3c(c2C(N)=O)CCC3)nnc1-c1ccccc1		inconclusive: 18.9 µM [inhibitor, partial curve]
Cc1ccccc1N=Nc1c(C)[nH]n(-c2ccccc2)c1=O	inactive: -1.49%	
Cc1ccc(/C=C/C(=O)NCCc2ccccc2)o1		active: 26.7 µM
O=C1C2C3C=CC(C3)C2C(=O)N1CCN1CCN(Cc2ccc([N+](=O)[O-])cc2)CC1 (configuration not stated)		active: 21.2 µM
CCN1CCSc2ccc(C(=O)NCc3ccccc3F)cc21	inactive: -27.5%	
Fc1ccc(Br)cc1SCCc1ccncc1		inconclusive: 11.9 µM [inhibitor, partial curve]
Cn1c(CNC(=O)c2ccc(F)cc2)nc2ccccc21		active: 26.7 µM
O=C(CSc1ncnc2nc[nH]c12)c1ccc(Cl)cc1		inconclusive: 29.9 µM [inhibitor, partial curve]
O=C(Nc1scc(-c2ccc(Br)cc2)c1C(=O)O)c1ccccc1F		inconclusive: 26.7 µM [inhibitor, single point]
CCOC(=O)c1sc(NC(=O)Cc2ccccc2OC)nc1C		inconclusive: 29.9 µM [inhibitor, partial curve]
COC(=O)CCC(=O)NC(=S)Nc1ccc(S(=O)(=O)Nc2cc(OC)nc(OC)n2)cc1	inactive: -9.77%	
Cc1ccc(-c2nnn(CC(=O)N(CCO)C(C(=O)NC3CCCCC3)c3ccncc3)n2)o1 (configuration not stated)		active: 33.6 µM
CNc1ccc(Br)cc(C(=O)/C=C/c2ccc(OC)cc2OC)c1=O		inconclusive: 26.7 µM [inhibitor, partial curve]
NC(=O)c1sc2nc3c(cc2c1N)CCCCCC3		inconclusive: 21.2 µM [inhibitor, partial curve]
COc1ccc(OC)c(C2CC(=O)N3CN(c4cccc(Cl)c4C)CSC3=C2C#N)c1 (configuration not stated)		inconclusive: 23.8 µM [inhibitor, single point]
CCOC(=O)/C=C/C(=O)Nc1cccc([N+](=O)[O-])c1		active: 3.36 µM

SMILES	max response, negative = inhibition	Potency
Nc1ccc(NC(=O)c2cccc(C(=O)Nc3ccc(N)cc3Cl)c2)c(Cl)c1	inactive: -13.9%	
COc1ccc(OC)c(NC(=O)CSc2nnc(-c3ccco3)n2-c2ccc(C(=O)O)cc2)c1	inactive: -12.2%	
COc1nc2ccccc2nc1CCC(=O)O		active: 29.9 µM
C/C(=N\NC(=O)c1cccs1)c1cccnc1		active: 21.2 µM
COCc1nnc(NC(=O)C2CC(=O)N(C3CCCC3)C2)s1 (configuration not stated)		inconclusive: 18.9 µM [inhibitor, single point]
COc1ccc(NC(=O)CN(c2cc(C)cc(C)c2)S(=O)(=O)c2c(C)n[nH]c2C)cc1		active: 29.9 µM
CC(=O)c1cccc(N2Cc3ccccc3C2=NC(=O)CCl)c1		active: 13.4 µM
Cn1c(CNC(=O)OC(C)(C)C)nnc1SCc1c(Cl)cccc1Cl		inconclusive: 37.7 µM [inhibitor, single point]
Cc1ccc(C)c(Cc2c(C)nc3c(C(=O)N4CCOCC4)cnn3c2C)c1	inactive: 6.66%	
Cc1ccc(S(=O)(=O)/N=C2/NC(=O)/C(=C/c3cccnc3)S2)cc1	inactive: -16.8%	
O=C(NCCN1CCOCC1)c1ccc2c(c1)N(Cc1ccccc1)C(=O)c1ccccc1S2		inconclusive: 23.8 µM [inhibitor, single point]
O=S1(=O)N=C(N(Cc2cccs2)c2ccc(O)cc2)c2ccccc21	inactive: -18.7%	
Cc1ccccc1NS(=O)(=O)c1c(C(=O)N2CCCCCC2)c(C)n(C)c1C		inconclusive: 23.8 µM [inhibitor, single point]
Cc1ccccc1N1CC(C(=O)NC2CCCC2)CC1=O (configuration not stated)		inconclusive: 21.2 µM [inhibitor, single point]
CC1=C(C(N)=O)C(c2cccnc2)n2nc(-c3cccc(C)c3)nc2N1 (configuration not stated)		inconclusive: 23.8 µM [inhibitor, partial curve]
CCOc1ccc(CCNC(=O)c2ccc(C)c(S(=O)(=O)N3CCOCC3)c2)cc1OCC		inconclusive: 13.4 µM [inhibitor, partial curve, poor fit]
CC(=O)NC(Cc1ccccc1)C(=O)N1CCN(C(=O)c2cccs2)CC1 (configuration not stated)	inactive: -7.04%	
COc1ccc(N2CCN(CCCNC(=O)Cn3c(=O)c4cccn4c4cccnc43)CC2)cc1	inactive: 2.51%	
Cc1ccc(NC(=O)CN2C(=O)N/C(=C\c3cccn3-c3cccc(C(=O)O)c3)C2=O)cc1		inconclusive: 26.7 µM [inhibitor, partial curve]
O=C(CSc1nnc(Cn2c(=O)sc3ccccc32)n1-c1ccccc1)N1CCOCC1		inconclusive: 26.7 µM [inhibitor, partial curve]
COC(=O)c1cc(Br)c(=O)n(-c2cc(C)on2)c1	inactive: 1.86%	
CC(=O)Nc1ccc(S(=O)(=O)Nc2nnc(C)s2)cc1		inconclusive: 23.8 µM [inhibitor, partial curve]
COc1ccccc1OCCCOc1ccc(/C=C2\SC(=O)NC2=O)cc1OC		inconclusive: 33.6 µM [inhibitor, single point]

Quoted at random: three entries already listed
SMILES	max response, negative = inhibition	Potency
Cc1ccc(NC(=O)CN2C(=O)N/C(=C\c3cccn3-c3cccc(C(=O)O)c3)C2=O)cc1		inconclusive: 26.7 µM [inhibitor, partial curve]
CC(=O)c1cccc(N2Cc3ccccc3C2=NC(=O)CCl)c1		active: 13.4 µM
O=C(CSc1nnc(Cn2c(=O)sc3ccccc32)n1-c1ccccc1)N1CCOCC1		inconclusive: 26.7 µM [inhibitor, partial curve]
